From paper PMC6746120
No constants are given. Whether binding was seen depends on the method and setting. In cells and extracts the contact can be indirect. Some entries that bind do so weakly or less than the wild type. One block for each binder: values may come before it.

How the values were obtained:
[1] = biological target: T1, minichromosome maintenance complex component 6 (UniProt Q14566); assay: co-IP; lysates (50 mmol/L Tris pH 7.4, 150 mmol/L NaCl, 1% NP-40) of HGC-27 and 293T cells overexpressing CDK5RAP3 and MCM6; antibody against MCM6 or CDK5RAP3 overnight at 4 °C, Protein A-Sepharose, Western blot
T1 sequence: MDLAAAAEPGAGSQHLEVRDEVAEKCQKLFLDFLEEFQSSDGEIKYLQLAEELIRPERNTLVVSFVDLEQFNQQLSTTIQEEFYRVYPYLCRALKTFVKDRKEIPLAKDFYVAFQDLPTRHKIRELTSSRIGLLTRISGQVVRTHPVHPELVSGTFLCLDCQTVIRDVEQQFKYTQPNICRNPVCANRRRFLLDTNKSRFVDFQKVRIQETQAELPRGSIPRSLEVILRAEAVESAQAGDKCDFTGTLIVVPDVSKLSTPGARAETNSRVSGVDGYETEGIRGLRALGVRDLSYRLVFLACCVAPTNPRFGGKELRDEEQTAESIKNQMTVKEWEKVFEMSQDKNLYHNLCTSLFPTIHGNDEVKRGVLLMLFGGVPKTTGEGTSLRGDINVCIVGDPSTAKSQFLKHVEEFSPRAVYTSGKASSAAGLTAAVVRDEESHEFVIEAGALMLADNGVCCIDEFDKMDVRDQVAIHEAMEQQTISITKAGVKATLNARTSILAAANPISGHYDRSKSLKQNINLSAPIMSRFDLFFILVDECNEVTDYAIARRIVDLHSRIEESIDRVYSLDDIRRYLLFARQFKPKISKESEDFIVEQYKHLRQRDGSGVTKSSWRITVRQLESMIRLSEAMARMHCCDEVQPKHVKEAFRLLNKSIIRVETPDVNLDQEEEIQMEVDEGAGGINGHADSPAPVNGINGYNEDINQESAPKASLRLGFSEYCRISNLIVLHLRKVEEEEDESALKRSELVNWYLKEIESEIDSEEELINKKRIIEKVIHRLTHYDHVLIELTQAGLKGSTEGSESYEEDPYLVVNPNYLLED

[2] = biological target: T2, Cyclin-dependent kinase 5 regulatory subunit-associated protein 3 (UniProt Q96JB5); assay: as above
T2 sequence: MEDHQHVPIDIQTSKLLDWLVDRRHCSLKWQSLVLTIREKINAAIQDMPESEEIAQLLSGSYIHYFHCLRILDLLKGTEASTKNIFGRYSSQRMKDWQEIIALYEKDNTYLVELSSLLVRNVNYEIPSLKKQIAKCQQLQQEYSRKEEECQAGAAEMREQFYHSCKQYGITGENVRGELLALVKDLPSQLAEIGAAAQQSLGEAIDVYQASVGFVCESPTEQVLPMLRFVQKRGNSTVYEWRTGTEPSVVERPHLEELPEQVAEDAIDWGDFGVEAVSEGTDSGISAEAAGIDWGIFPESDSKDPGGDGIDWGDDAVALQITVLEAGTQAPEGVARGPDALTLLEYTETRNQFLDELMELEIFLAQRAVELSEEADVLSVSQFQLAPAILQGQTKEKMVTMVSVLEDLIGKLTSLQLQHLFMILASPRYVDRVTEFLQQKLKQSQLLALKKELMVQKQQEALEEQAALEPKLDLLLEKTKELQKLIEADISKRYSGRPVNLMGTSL

binding [1]: binds
B1: Cyclin-dependent kinase 5 regulatory subunit-associated protein 3 (protein, UniProt Q96JB5 1-506)
chain: T2 sequence

binding [2]: binds
B2: minichromosome maintenance complex component 6 (protein, UniProt Q14566 1-821)
chain: T1 sequence
